Assay results taken from patent US20150259420A1.
No constants are given. Whether binding was seen depends on the method and setting. Some binding calls cover weakened binding; strength is not graded here. For some of these results: Where a sequence is shown, tags or fusion partners need not be part of it.

Legend:
[1] = molecular target: T1, LAG-3-huIgG1 Fc fusion protein (human) (UniProt P18627); assay: flow cytometry: blocking of LAG-3-huIgG1 Fc binding to Daudi cells
T1 sequence (looked up): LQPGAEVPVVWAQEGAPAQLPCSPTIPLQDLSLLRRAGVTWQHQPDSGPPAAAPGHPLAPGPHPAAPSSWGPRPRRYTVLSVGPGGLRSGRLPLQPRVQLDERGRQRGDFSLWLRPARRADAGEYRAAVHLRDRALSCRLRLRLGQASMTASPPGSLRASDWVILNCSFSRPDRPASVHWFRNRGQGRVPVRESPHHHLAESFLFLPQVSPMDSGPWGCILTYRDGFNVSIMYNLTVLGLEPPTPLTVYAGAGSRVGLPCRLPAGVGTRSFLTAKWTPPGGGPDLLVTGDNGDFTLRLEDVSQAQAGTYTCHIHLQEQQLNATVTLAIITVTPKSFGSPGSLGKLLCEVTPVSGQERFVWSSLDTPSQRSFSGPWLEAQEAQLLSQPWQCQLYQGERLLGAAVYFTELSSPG

[2] = molecular target: T2, LAG-3 with D2 deletion expressed on CHO cells (UniProt P18627); assay: binding to transfected CHO cells
T2 sequence (looked up): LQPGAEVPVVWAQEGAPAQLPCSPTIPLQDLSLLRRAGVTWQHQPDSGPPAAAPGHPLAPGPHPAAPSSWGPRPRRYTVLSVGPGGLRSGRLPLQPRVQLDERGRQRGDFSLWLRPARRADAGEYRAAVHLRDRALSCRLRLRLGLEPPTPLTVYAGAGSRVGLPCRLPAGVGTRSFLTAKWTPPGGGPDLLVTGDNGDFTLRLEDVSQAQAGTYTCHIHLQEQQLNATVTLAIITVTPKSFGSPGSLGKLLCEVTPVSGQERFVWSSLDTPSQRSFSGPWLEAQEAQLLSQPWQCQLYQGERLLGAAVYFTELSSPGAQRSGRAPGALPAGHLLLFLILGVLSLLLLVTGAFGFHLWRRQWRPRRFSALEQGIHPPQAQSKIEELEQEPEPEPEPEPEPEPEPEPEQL

[3] = molecular target: T3, LAG-3 with partial deletion of D1 extra loop expressed on CHO cells (UniProt P18627); assay: binding to transfected CHO cells
T3 sequence (looked up): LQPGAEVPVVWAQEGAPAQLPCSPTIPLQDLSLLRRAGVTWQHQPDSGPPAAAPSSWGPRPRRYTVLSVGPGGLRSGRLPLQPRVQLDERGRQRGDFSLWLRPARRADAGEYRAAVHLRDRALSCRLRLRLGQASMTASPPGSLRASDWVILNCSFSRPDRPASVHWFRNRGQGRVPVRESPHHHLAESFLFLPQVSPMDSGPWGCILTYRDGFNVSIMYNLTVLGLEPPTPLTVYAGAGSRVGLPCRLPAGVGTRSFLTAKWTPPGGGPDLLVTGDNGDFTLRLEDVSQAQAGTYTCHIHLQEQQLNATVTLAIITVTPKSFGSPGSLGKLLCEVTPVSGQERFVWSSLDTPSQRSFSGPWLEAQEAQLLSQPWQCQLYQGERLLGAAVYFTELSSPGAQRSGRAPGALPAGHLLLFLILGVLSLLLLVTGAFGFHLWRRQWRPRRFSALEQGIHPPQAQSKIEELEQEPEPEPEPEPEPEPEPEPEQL

[4] = molecular target: T1, LAG-3-huIgG1 Fc fusion protein (human); assay: blocking FACS: serial dilutions of mAb with LAG-3-huIgG1 Fc at a constant 2 µg/mL on Daudi cells, 4 C, 30 min; bound LAG-3-Ig detected with PE anti-human IgG F(ab')2; blocked ligand: MHC class II on Daudi cells
[5] = molecular target: T4, human LAG-3 expressed on cells (human) (UniProt P18627); assay: FACS competition on LAG-3-expressing CHO cells; competitor: FITC-labeled BAP050
T4 sequence (looked up): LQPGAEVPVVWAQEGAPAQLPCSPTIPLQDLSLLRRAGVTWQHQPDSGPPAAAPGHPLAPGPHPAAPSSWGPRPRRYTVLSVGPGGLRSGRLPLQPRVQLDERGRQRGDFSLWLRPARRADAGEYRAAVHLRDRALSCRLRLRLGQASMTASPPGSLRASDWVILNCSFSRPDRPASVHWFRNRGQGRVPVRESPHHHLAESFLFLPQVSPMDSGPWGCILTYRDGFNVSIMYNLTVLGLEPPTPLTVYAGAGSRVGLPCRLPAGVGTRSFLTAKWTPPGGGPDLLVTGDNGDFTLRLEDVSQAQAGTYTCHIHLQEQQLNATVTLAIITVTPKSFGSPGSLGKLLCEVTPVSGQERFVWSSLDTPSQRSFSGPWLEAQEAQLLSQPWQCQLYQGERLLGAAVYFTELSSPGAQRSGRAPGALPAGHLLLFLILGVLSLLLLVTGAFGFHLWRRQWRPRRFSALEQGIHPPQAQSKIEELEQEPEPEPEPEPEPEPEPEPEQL

[6] = molecular target: T4, human LAG-3 expressed on cells (human); assay: FACS binding of the mAb (CHO culture supernatant) at 200, 100, 50, 25 and 12.5 ng/ml to LAG-3-expressing cells; median fluorescence
[7] = molecular target: T4, human LAG-3 expressed on cells (human); assay: FACS binding, FIG. 3
[8] = molecular target: T4, human LAG-3 expressed on cells (human); assay: competition FACS on LAG-3-expressing CHO cells: serial dilutions of unlabelled test mAb against a constant concentration of FITC-labelled murine mAb BAP050, 4 C, 30 min; MFI of bound labelled mAb (Experiment 2)
[9] = molecular target: T4, human LAG-3 expressed on cells (human); assay: binding test on LAG-3-transfected CHO cells
[10] = molecular target: T4, human LAG-3 expressed on cells (human); assay: competition FACS on LAG-3-expressing CHO cells: serial dilutions of unlabelled test mAb against a constant concentration of FITC-labelled murine mAb BAP050, 4 C, 30 min; MFI of bound labelled mAb (Experiment 1)

Measured: binding

B1: murine anti-LAG-3 monoclonal antibody BAP050 (antibody, V domains shown)
VH: QIQLVQSGPELKKPGETVKISCKASGFTLTNYGMNWVRQTPGKGLKWMGWINTDTGEPTYADDFKGRFAFSLETSASTASLQINNLKNADTATYFCARNPPYYYGTNNAEAMDYWGQGTAVTVSS
VL: DIQMTQTTSSLSASLGDRVTISCSSSQDISNYLNWYQQKPDGTVKVLIYYTSTLHLGVPSRFSGSGSGTDYSLTISNLELEDIATYYCQQYYNLPWTFGGGTKLEIK
binds: [1] | [2] | [3] | [4]

B2: chimeric mAb BAP050-chi (antibody, human IgG4 S228P, kappa, V domains shown)
VH: QIQLVQSGPELKKPGETVKISCKASGFTLTNYGMNWVRQTPGKGLKWMGWINTDTGEPTYADDFKGRFAFSLETSASTASLQINNLKNADTATYFCARNPPYYYGTNNAEAMDYWGQGTTVTVSS
VL: DIQMTQTTSSLSASLGDRVTISCSSSQDISNYLNWYQQKPDGTVKVLIYYTSTLHLGVPSRFSGSGSGTDYSLTISNLELEDIATYYCQQYYNLPWTFGQGTKVEIKR
binds: [1] | [4]

B3: BAP050-hum02-Ser (antibody, human IgG4 S228P, kappa, V domains shown)
VH: EVQLVQSGAEVKKPGATVKISCKVSGFTLTNYGMNWVRQAPGQGLEWMGWINTDTGEPTYADDFKGRFVFSLDTSVSTAYLQISSLKAEDTAVYYCARNPPYYYGTNNAEAMDYWGQGTTVTVSS
VL: DIQMTQSPSSLSASVGDRVTITCSSSQDISNYLNWYQQKPGKAPKLLIYYTSTLHLGIPPRFSGSGYGTDFTLTINNIESEDAAYYFCQQYYNLPWTFGQGTKVEIKR
binds: [1] | [4]

B4: BAP050-hum09-Ser (antibody, human IgG4 S228P, kappa, V domains shown)
VH: QVQLVQSGAEVKKPGASVKVSCKASGFTLTNYGMNWVRQARGQRLEWIGWINTDTGEPTYADDFKGRFVFSLDTSVSTAYLQISSLKAEDTAVYYCARNPPYYYGTNNAEAMDYWGQGTTVTVSS
VL: DIQMTQSPSSLSASVGDRVTITCSSSQDISNYLNWYQQKPGKAPKLLIYYTSTLHLGIPPRFSGSGYGTDFTLTINNIESEDAAYYFCQQYYNLPWTFGQGTKVEIKR
binds: [1] | [4]

B5: BAP050-hum11-Ser (antibody, human IgG4 S228P, kappa, V domains shown)
VH: QVQLVQSGAEVKKPGASVKVSCKASGFTLTNYGMNWVRQARGQRLEWIGWINTDTGEPTYADDFKGRFVFSLDTSVSTAYLQISSLKAEDTAVYYCARNPPYYYGTNNAEAMDYWGQGTTVTVSS
VL: DIQMTQSPSSLSASVGDRVTITCSSSQDISNYLNWYLQKPGQSPQLLIYYTSTLHLGVPSRFSGSGSGTEFTLTISSLQPDDFATYYCQQYYNLPWTFGQGTKVEIKR
binds: [1] | [4]

B6: BAP050-hum12-Ser (antibody, human IgG4 S228P, kappa, V domains shown)
VH: QVQLVQSGAEVKKPGASVKVSCKASGFTLTNYGMNWVRQARGQRLEWIGWINTDTGEPTYADDFKGRFVFSLDTSVSTAYLQISSLKAEDTAVYYCARNPPYYYGTNNAEAMDYWGQGTTVTVSS
VL: EIVLTQSPDFQSVTPKEKVTITCSSSQDISNYLNWYQQKPGQAPRLLIYYTSTLHLGVPSRFSGSGSGTDFTLTISSLQPEDFATYYCQQYYNLPWTFGQGTKVEIKR
binds: [1] | [4]

B7: BAP050-hum13-Ser (antibody, human IgG4 S228P, kappa, V domains shown)
VH: QVQLVQSGAEVKKPGASVKVSCKASGFTLTNYGMNWVRQAPGQGLEWMGWINTDTGEPTYADDFKGRFVFSLDTSVSTAYLQISSLKAEDTAVYYCARNPPYYYGTNNAEAMDYWGQGTTVTVSS
VL: DIQMTQSPSSLSASVGDRVTITCSSSQDISNYLNWYQQKPGKAPKLLIYYTSTLHLGIPPRFSGSGYGTDFTLTINNIESEDAAYYFCQQYYNLPWTFGQGTKVEIKR
binds: [1] | [4]

B8: BAP050-hum10 (antibody, human IgG4 S228P, kappa, V domains shown)
VH: QVQLVQSGAEVKKPGASVKVSCKASGFTLTNYGMNWVRQARGQRLEWIGWINTDTGEPTYADDFKGRFVFSLDTSVSTAYLQICSLKAEDTAVYYCARNPPYYYGTNNAEAMDYWGQGTTVTVSS
VL: EIVLTQSPATLPVTLGQPASISCSSSQDISNYLNWYQQKPGQAPRLLIYYTSTLHLGVPSRFSGSGSGTDFTFTISSLEAEDAATYYCQQYYNLPWTFGQGTKVEIKR
binds: [5] | [6] | [7] | [8] | [9] | [10]

B9: BAP050-hum14 (antibody, human IgG4 S228P, kappa, V domains shown)
VH: EVQLVQSGAEVKKPGATVKISCKVSGFTLTNYGMNWIRQSPSRGLEWLGWINTDTGEPTYADDFKGRFVFSLDTSVSTAYLQICSLKAEDTAVYYCARNPPYYYGTNNAEAMDYWGQGTTVTVSS
VL: EIVLTQSPATLPVTLGQPASISCSSSQDISNYLNWYQQKPGQAPRLLIYYTSTLHLGVPSRFSGSGSGTDFTFTISSLEAEDAATYYCQQYYNLPWTFGQGTKVEIKR
binds: [5] | [6] | [7] | [8] | [9] | [10]
